Data as given in PubChem BioAssay AID504786 (Drosophila RNAi Screening Center, 2011)
Aim: 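Fly genes required for HIF-dependent transcription when hypoxia is mimicked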 (primary screen). System: Drosophila S2 cells with a stable HIF luciferase reporter. Reagent: long dsRNA against Drosophila genes, about 0.2 µg dsRNA per well of a 384-well plate. Duration: three days of knock-down, then 20 h of DFO before reading. Challenge: desferrioxamine (DFO) at 100 µM, an iron chelator that mimics hypoxia, for 20 h. Measurement: 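HIF reporter luminescence in cells given 100 µM DFO for 20 h, using the mouse ldh-a hypoxia-response element, scored as per-plate z-scores; higher means greater loss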. Scale: z-score: higher = stronger loss of HIF reporter signal.
In all, the deposit lists about 21,000 reagents; below is a random part of those with a known target gene and a result. 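Primary screen; positive scores mean lost reporter signal, so the sign may be inverted from the usual convention.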 Names joined by + are all predicted targets of the reagent. Not all columns of the deposit are shown.

z-score, replicate 1, by gene and reagent
GlyRS (Glycyl-tRNA synthetase): DRSC10711 -0.2
Corp (Companion of reaper): DRSC17771 -0.3
RFeSP (Rieske iron-sulfur protein): DRSC00702 -0.3
Smr (Smrter): DRSC19495 1.4; DRSC20288 1.4
CG17036: DRSC02564 -0.3
alpha-Cat (alpha Catenin): DRSC11917 -0.3
Sr-CII (Scavenger receptor class C, type II): DRSC07557 -0.3
Eig71Ed (Ecdysone-induced gene 71Ed): DRSC11151 -0.4
betaCOP (Coat Protein (coatomer) beta): DRSC20312 -0.5
Acsf3 (Acyl-CoA synthetase family member 3): DRSC18146 0
Fas2 (Fasciclin 2): DRSC17308 1.9; DRSC17309 -0.1; DRSC18664 0
CG7091: DRSC12944 -0.3; DRSC16197 0
CG12869: DRSC06208 -0.4
CG30413: DRSC04001 -0.2
CG8001: DRSC08611 -0.3
CG42591: DRSC08905 0.3
CG30287: DRSC03875 -0.2
CG31910 + snoRNA:Me28S-G2743 (retired record): DRSC00946 -0.4
SdhB (Succinate dehydrogenase, subunit B (iron-sulfur)): DRSC05018 -0.2
CG15343: DRSC18028 -0.3
Edg91 (Ecdysone-dependent gene 91): DRSC16657 -0.3
CG10862: DRSC08170 -0.1
CG1824: DRSC19796 -0.2
mspo (M-spondin): DRSC07652 -0.2
CG2924: DRSC18525 -0.4
S (Star): DRSC00785 0.7
CG13958 (retired record): DRSC02300 0.1
CG6280: DRSC06972 0.3
CG17928: DRSC02644 -0.3
PGRP-SC2 (Peptidoglycan recognition protein SC2): DRSC06481 -0.2
Wee1 (Wee1 kinase): DRSC03635 -0.4
Tsp66E (Tetraspanin 66E): DRSC09683 -0.3
EMC1 (ER membrane protein complex subunit 1): DRSC15455 -0.3
IntS14 (Integrator 14): DRSC00668 -0.3
btl (breathless): DRSC11331 -0.2
CG14302: DRSC14781 -1.2
CheB38c (Chemosensory protein B 38c): DRSC02389 -0.3
alpha-Est1 (alpha-Esterase-1): DRSC12612 -0.3
OstDelta (Oligosaccharide transferase Delta subunit): DRSC06980 1.3
CG10300: DRSC14225 0
CG5498: DRSC11608 -0.3
e(y)3 (enhancer of yellow 3): DRSC19450 1.6
CG13045: DRSC09926 -0.3

Targets above whose gene name begins with F or f (3):
z-score, replicate 1, by gene and reagent
Fas2 (Fasciclin 2): DRSC17308 1.9; DRSC17309 -0.1; DRSC18664 0

The results go on.
z-score, replicate 1, by gene and reagent
robo3 (roundabout 3): DRSC00374 -0.2; DRSC00375 -0.1; DRSC00684 -0.3
CG5412: DRSC15796 -0.3
CG4497: DRSC02754 -0.3
ND-ASHI (NADH dehydrogenase (ubiquinone) ASHI subunit): DRSC18291 -0.2
CG34452: DRSC09387 0.2
vir-1 (virus-induced RNA 1): DRSC02501 -0.2; DRSC02863 -0.2
Hnf4 (Hepatocyte nuclear factor 4): DRSC01032 -0.3; DRSC03344 -0.9
MBD-like (Methyl-CpG binding domain protein-like): DRSC16996 0.2
CG1896: DRSC15397 -0.2
rngo (rings lost): DRSC19903 -0.6
unc-119: DRSC18846 -0.3
Exn (Ephexin): DRSC09673 -0.2; DRSC10077 -0.2
Dgp-1: DRSC07400 -0.3
CG42538: DRSC09412 0.6
CG8112: DRSC16377 -0.3
Nedd8 (Nedd8 ubiquitin like modifier): DRSC02092 -0.4
CG4783: DRSC15644 -0.4
CG34234 + Dh44-R2: DRSC07278 -0.3
Shaw (Shaker cognate w): DRSC00433 -0.3; DRSC00788 -0.4
eIF4E3 (eukaryotic translation initiation factor 4E3): DRSC10952 -0.1
CG31345: DRSC14193 0.3; DRSC14847 -0.3
Or98b (Odorant receptor 98b): DRSC16775 -0.5
prim (primacord): DRSC06575 -0.3
CG10513: DRSC14248 -0.2
MCTS1 (Malignant T cell amplified sequence 1): DRSC18393 -0.2
CG4866: DRSC06899 -0.2
Tmtc4 (Transmembrane O-mannosyltransferase targeting cadherins 4): DRSC15702 -0.2
CG12951: DRSC14579 -0.4
CG6830: DRSC16124 -0.3
